# Experimental data from paper PMC8843744.
# Protein sequences, listed by entry. Tags and fused reporters are not part of them.
# UniProt Q7Z4V5: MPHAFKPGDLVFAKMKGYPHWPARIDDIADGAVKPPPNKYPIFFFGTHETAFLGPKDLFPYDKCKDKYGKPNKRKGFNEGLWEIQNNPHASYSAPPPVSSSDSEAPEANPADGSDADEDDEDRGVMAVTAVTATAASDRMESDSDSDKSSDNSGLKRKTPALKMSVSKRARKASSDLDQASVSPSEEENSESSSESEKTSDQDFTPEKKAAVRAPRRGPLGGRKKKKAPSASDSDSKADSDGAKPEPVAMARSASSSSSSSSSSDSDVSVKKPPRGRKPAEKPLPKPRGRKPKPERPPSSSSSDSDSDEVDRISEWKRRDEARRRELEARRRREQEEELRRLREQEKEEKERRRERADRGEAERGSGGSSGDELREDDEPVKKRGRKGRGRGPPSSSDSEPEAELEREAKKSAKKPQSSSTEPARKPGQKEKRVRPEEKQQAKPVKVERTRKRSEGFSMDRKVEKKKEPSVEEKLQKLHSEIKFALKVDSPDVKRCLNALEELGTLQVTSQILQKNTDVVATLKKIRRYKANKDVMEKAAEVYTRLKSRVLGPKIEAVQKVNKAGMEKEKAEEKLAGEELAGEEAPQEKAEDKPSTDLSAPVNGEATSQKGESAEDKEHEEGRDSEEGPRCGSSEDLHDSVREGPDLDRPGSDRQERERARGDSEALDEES
# UniProt Q8IUF8: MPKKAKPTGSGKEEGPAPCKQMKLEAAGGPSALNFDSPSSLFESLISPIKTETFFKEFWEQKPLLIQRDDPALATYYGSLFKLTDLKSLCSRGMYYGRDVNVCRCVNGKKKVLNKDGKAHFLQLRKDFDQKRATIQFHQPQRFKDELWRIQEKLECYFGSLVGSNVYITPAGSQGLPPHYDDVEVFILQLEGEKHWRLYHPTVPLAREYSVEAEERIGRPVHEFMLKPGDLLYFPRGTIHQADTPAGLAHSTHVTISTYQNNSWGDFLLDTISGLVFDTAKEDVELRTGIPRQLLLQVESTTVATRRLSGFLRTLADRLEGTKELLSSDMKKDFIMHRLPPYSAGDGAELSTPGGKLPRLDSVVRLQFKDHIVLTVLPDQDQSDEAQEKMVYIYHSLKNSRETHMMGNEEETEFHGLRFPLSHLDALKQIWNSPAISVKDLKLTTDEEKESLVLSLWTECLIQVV
# These are yes or no findings as the source states them, for the method shown. In cells and extracts the contact can be indirect. Some binding calls cover weakened binding; strength is not graded here.
# Tests used:
# [1] = target: HRP2 in LP-1 cells (human (endogenous in LP-1)) (UniProt Q7Z4V5); test: co-IP; LP-1 cells; Western blotting; bait antibody not told in the text shown
# [2] = target: hepatoma-derived growth factor 2 (HRP2), Flag-tagged (UniProt Q7Z4V5); test: co-IP; HEK293T cells, IP lysis buffer; Flag antibody or control IgG overnight at 4°C, protein A/G magnetic beads; Western blotting
binding [1],binding [2],Substance
binds,–,MINA in LP-1 cells (from UniProt Q8IUF8 1-465)
–,binds,Flag-MINA (from UniProt Q8IUF8 1-465)
